These are yes or no findings as the source states them, for the method shown. Binding seen in cells or lysates may run through a third protein. Here binding means that the protein was enriched with, or labelled near, the bait; the list need not be complete. Sequences can lack the tags named with a protein.
Biological target: EGFP-Otub2 (mouse)
Experiment: affinity purification with mass spectrometry

binding: binds
B1: voltage-gated potassium channel subunit Kv9.3 (protein, UniProt Q8BQZ8 1-491)
chain: MVFGEFFHRPGQDEELVNLNVGGFKQSVDQSTLLRFPHTRLGKLLTCHSEEAILELCDDYSVADKEYYFDRNPFLFRYVLNFYYTGKLHVMEELCVFSFCQEIEYWGINELFIDSCCSSRYQERKEESHDKDWDQKSNDVSTDSSFEESSLFEKELEKFDELRFGQLRKKIWIRMENPAYCLSAKLIAISSLSVVLASIVAMCVHSMSEFQNEDGEVDDPVLEGVEIACIAWFTGELAIRLVAAPSQKKFWKNPLNIIDFVSIIPFYATLAVDTKEEESEDIENMGKVVQILRLMRIFRILKLARHSVGLRSLGATLRHSYHEVGLLLLFLSVGISIFSVLIYSVEKDEHKSSLTSIPICWWWATISMTTVGYGDTHPVTLAGKIIASTCIICGILVVALPITIIFNKFSKYYQKQKDMEVDQCSEDPPEKCHELPYFNIRDVYAQQVHAFITSLSSIGIVVSDPDSTDASSVEDNEDAYNTASLENCTGK
